Source: paper doi:10.1101/2024.10.08.617332 (bioRxiv, 2024)
No constants are given. Whether binding was seen depends on the method and setting. Some binding calls cover weakened binding; strength is not graded here.

The chains behind the UniProt entries cited, without tags or fusion partners.
UniProt Q02248: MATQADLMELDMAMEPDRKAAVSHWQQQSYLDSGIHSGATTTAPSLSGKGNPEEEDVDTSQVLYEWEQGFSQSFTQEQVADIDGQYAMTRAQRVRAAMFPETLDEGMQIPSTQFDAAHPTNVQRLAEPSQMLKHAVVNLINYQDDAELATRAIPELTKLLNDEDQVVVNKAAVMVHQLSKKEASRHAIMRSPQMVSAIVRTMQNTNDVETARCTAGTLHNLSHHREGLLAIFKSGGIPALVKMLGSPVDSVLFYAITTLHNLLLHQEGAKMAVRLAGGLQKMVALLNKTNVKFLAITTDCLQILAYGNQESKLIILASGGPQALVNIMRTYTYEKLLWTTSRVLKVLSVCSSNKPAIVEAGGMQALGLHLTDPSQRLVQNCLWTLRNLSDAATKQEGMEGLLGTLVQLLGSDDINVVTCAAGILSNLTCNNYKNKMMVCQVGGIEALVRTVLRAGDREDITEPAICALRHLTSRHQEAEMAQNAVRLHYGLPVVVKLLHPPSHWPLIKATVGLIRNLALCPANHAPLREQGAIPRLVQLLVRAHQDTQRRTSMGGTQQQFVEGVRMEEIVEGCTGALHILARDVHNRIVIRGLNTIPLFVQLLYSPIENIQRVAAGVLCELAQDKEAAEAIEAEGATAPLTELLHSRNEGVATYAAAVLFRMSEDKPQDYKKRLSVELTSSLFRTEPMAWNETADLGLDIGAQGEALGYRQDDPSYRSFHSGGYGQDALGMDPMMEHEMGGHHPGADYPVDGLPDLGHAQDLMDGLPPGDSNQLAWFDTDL
UniProt P26231: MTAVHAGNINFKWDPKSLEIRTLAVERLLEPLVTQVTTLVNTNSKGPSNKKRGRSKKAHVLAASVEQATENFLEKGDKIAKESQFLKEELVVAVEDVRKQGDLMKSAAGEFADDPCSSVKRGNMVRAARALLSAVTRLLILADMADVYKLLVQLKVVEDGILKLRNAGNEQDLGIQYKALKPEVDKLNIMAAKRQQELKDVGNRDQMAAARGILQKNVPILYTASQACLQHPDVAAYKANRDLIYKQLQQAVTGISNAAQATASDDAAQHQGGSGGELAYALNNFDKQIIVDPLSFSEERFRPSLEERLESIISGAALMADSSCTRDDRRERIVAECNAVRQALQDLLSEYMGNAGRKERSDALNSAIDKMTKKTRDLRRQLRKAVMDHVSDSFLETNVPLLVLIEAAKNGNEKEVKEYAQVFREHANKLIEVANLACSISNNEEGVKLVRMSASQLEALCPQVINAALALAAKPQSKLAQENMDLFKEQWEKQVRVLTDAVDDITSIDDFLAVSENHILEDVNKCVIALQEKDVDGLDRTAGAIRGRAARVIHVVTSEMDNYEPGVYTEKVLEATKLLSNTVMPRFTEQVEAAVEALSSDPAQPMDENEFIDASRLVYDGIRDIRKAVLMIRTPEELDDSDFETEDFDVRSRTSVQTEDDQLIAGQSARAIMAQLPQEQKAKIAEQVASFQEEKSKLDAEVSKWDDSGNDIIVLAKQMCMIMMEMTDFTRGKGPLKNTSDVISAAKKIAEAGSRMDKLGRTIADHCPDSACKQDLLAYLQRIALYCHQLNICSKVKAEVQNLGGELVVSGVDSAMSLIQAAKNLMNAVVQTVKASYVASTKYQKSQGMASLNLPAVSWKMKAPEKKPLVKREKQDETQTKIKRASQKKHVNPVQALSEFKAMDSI

Biological target: full length β-catenin (mouse) (UniProt Q02248)
Experiment: affinity co-purification + anion exchange + SEC; co-expression of GFP-E-cadherin, untagged β-catenin and untagged αE-catenin in FreeStyle 293-F; anti-GFP beads, TEV, MonoQ, Superdex 200

For “full-length αE-catenin (from UniProt P26231 1-906)”, the binding was “binds”.
